These are yes or no findings as the source states them, for the method shown. Binding seen in cells or lysates may run through a third protein. Here binding means that the protein was enriched with, or labelled near, the bait; the list need not be complete.
B1: Serine palmitoyltransferase 2 (protein, UniProt P97363 1-560)
chain: MRPEPGGCCCRRPMRANGCVKNGEVRNGYLRSSTATVAAAGQIHHVTENGGLYKRPFNEAFEETPMLVAVLTYVGYGVLTLFGYLRDFLRHWRIEKCHHATEREEQKDFVSLYQDFENFYTRNLYMRIRDNWNRPICSVPGAKVDIMERKSHDYNWSFKYTGNIIKGVINMGSYNYLGFARNTGSCQEAAAEVLKEYGAGVCSTRQEIGNLDKHEELEKLVARFLGVEAAMTYGMGFATNSMNIPALVGKGCLILSDELNHASLVLGARLSGATIRIFKHNNMQSLEKLLKDAIVYGQPRTRRPWKKILILVEGIYSMEGSIVRLPEVIALKKKYKAYLYLDEAHSIGALGPSGRGVVDYFGLDPEDVDVMMGTFTKSFGASGGYIGGKKELIDYLRTHSHSAVYATSMSPPVMEQIITSMKCIMGQDGTSLGKECIQQLAENTRYFRRRLKEMGFIIYGNEDSPVVPLMLYMPAKIGAFGREMLKRNIGVVVVGFPATPIIESRARFCLSAAHTKEILDTALKEIDEVGDLLQLKYSRHRLVPLLDRPFDETTYEETED
B2: Sister chromatid cohesion protein PDS5 homolog B (protein, UniProt Q4VA53 1-1446)
chain: MAHSKTRTNDGKITYPPGVKEISDKISKEEMVRRLKMVVKTFMDMDQDSEEEKELYLNLALHLASDFFLKHPDKDVRLLVACCLADIFRIYAPEAPYTSPDKLKDIFMFITRQLKGLEDTKSPQFNRYFYLLENIAWVKSYNICFELEDSNEIFTQLYRTLFSVINNGHNQKVHMHMVDLMSSIICEGDTVSQELLDTVLVNLVPAHKNLNKQAYDLAKALLKRTAQAIEPYITNFFNQVLMLGKTSISDLSEHVFDLILELYNIDSHLLLSVLPQLEFKLKSNDNEERLQVVKLLAKMFGAKDSELASQNKPLWQCYLGRFNDIHVPIRLECVKFASHCLMNHPDLAKDLTEYLKVRSHDPEEAIRHDVIVSIVTAAKKDILLVNDHLLNFVRERTLDKRWRVRKEAMMGLAQIYKKYSLQSAAGKDAAKQISWVKDKLLHIYYQNSIDDRLLVERIFAQYMVPHNLETTERMKCLYYLYATLDLNAVKALNEMWKCQNLLRHQVKDLLDLIKQPKTDASVKAIFSKVMVITRNLPDPGKAQDFMKKFTQVLEDDEKIRKQLEALVSPTCSCKQAEGCVREITKKLGNPKQPTNPFLEMIKFLLERIAPVHIDTESISALIKQVNKSIDGTADDEDEGVPTDQAIRAGLELLKVLSFTHPISFHSAETFESLLACLKMDDEKVAEAALQIFKNTGSKIEEDFPHIRSALLPVLHHKSKKGPPRQAKYAIHCIHAIFSSKETQFAQIFEPLHKSLDPSNLEHLITPLVTIGHIALLAPDQFAAPLKSLVATFIVKDLLMNDRLPGKKTTKLWVPDEEVSPETMVKIQAIKMMVRWLLGMKNNHSKSGTSTLRLLTTILHSDGDLTEQGKISKPDMSRLRLAAGSAIVKLAQEPCYHEIITLEQYQLCALAINDECYQVRQVFAQKLHKGLSRLRLPLEYMAICALCAKDPVKERRAHARQCLVKNITVRREYLKQHAAVSEKLLSLLPEYVVPYTIHLLAHDPDYVKVQDIEQLKDVKECLWFVLEILMAKNENNSHAFIRKMVENIKQTKDAQGPDDTKMNEKLYTVCDVAMNIIMSKSTTYSLESPKDPVLPARFFTQPDKNFSNTKNYLPPEMKSFFTPGKPKTANVLGAVNKPLSSAGKQSQTKSSRMETVSNASSSSNPSSPGRIKGRLDSSEMDHSENEDYTMSSPLPGKKSDKREDPDLSELEKPRSRKKAPVTDPEEKLGMDDLTKLVQEQKPKGSQRGRKRGRTASDSDEQQWPEEKRHKEELLENEDEQNSPPKKGKRGRPPKPLGGGTSKEEPTMKTSKKGNKKKLVPPVVDDDEEEERQIGNTEHKSKSKQHRTSKRAQQRAESPETSAVESTQSTPQKGRGRPSKAPSPSQPPKKIRVGRSKQVATKENDSSEEMDVLQASSPVSDDTTQEGAEEEDISVGNVRRRSSKRERR
B3: NF-kappa-B-repressing factor (protein, UniProt Q8BY02 1-690)
chain: MEKILHMAEGIDIGEMPSYDLMLPKPSKGQKRYLSTYDGQNPPKKQAGSKFHVRARFEPVHFVASSSKAERQEDPYGPQTKDVNGRTHFASMPRNFYQDYTQDSFSIQDGNSQYCNSSGFIFTKDQPVATNMYFDSGNPAPSSTSQQANCQPAPEPPPSQMYPESLVAEKQYFIEKLTATIWKNLSNPEMTSGSDKINYTYMLTRCIQACKTNPEYIYAPLKEIPPADIPKNKKLLTDGYACEVRCQNIYLTTGYAGSKNGSRDRATELAVKLLQKRIEVRVVRRKFKHIIGEDLVVCQIGMLSYEFPPALKPPEDLVVLGKDASGQPIFNSSAKHWTNFVITENANDAIGILNNSASFNKMSIEYKYEMMPNRTWRCRVFLQDHCLAEGYGTKKTSKHAAADEALKVLQKTQPTYPSVKSSQCHSGSSPKGSGKKKDIKDLVVYENSSNPVCTLNDTAQFNRMTVEYVYERMTGLRWKCKVILESEVIAEAVGVKKSVKYEAAGEAVKTLKKTQPTVINNLKKGTVEDVISRNEIQGRSAEEAYKQQIKEDNIGNQLLRKMGWTGGGLGKSGEGIREPISVKEQHKREGLGLDVERVNKIAKRDIEQIIRNYARSESHSDLTFSTELTNDERKQIHQIAQKYGLKSKSHGVGHDRYLVVGRKRRKEDLLDQLKQEGQVGHYELVMPQAN
B4: Mitochondrial fission 1 protein (protein, UniProt Q9CQ92 1-152)
chain: MEAVLNELVSVEDLKNFERKFQSEQAAGSVSKSTQFEYAWCLVRSKYNEDIRRGIVLLEELLPKGSKEEQRDYVFYLAVGNYRLKEYEKALKYVRGLLQTEPQNNQAKELERLIDKAMKKDGLVGMAIVGGMALGVAGLAGLIGLAVSKSKS
B5: Ribosomal RNA processing protein 1 homolog B (protein, UniProt Q91YK2 1-724)
chain: MALAMQSSEFQFAQRLASSEKGVRDRAVRKLRQYLSARTQSDTGSFSQEELLKIWKGLFYCMWVQDEPLLQEELANIISQLIHVVNSLEAQYLFIQTFWQTMNREWQGIDKLQLDKYYMLIRLVLRQSFEVLKRNAWEESQITLFLDILMKEILSPESQSPNGVRTHLIDVYLEELTTVGGAELLADQNLKLIDPFCRIAAKTKDHTLVQTVARGVFEVIVDQSACVPQESVEERKTKEDGSGFPTKALACRKAVSGKKAALDECLRDGVIGSRERDICAALKDSGSPLQFDYKAVADRLLEIANSKSTPPFNRKRLCRLVRKFQDLCEGNGAPLSSAEDNGQRRHKRKRKKLLESEKGDTVSPAAEEDSGGHIHKKKRKKRKRSHFQPDTQNLDAVAVPKVPDSESEPDTAQRQAPCGQACVTEPTAEAVSSIGENSSKPTPVMPIHNKRKRPRKKKLRAHKEICKSTTLPQEDMSKNDAVSGHSQSSAAHISSSEGVQAQKRKRKLGALPDSSSDLPVQKSGTPTSPVEGKDGQTTLPRCKRSQKKTASSTLDPCDPSSQKPAISKKKKKTMKLMSNGVLESNPGQIQALGSNRTLKKPLKTEDDFVKFDTRFLPKPLFFRKAKNSSATRPQGPAGQLNKTPSSSKKVTFGLNRNMTAEFKKTDKSILVSPTGLSRVAFNPEQRPLHGVLKTATSSPASTPLSPMRLPATTPKRRPRAADFF

Sequences of proteins named here, by UniProt entry; tags and fusion partners are left off. A change or cut given only in a name is not applied to a line headed by its entry. Residues count along the entry.
UniProt P00441: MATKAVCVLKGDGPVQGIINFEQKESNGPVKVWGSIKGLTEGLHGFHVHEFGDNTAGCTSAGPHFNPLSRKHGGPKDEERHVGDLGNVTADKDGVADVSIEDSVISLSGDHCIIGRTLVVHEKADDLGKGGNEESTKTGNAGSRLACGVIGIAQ
UniProt Q80XI3: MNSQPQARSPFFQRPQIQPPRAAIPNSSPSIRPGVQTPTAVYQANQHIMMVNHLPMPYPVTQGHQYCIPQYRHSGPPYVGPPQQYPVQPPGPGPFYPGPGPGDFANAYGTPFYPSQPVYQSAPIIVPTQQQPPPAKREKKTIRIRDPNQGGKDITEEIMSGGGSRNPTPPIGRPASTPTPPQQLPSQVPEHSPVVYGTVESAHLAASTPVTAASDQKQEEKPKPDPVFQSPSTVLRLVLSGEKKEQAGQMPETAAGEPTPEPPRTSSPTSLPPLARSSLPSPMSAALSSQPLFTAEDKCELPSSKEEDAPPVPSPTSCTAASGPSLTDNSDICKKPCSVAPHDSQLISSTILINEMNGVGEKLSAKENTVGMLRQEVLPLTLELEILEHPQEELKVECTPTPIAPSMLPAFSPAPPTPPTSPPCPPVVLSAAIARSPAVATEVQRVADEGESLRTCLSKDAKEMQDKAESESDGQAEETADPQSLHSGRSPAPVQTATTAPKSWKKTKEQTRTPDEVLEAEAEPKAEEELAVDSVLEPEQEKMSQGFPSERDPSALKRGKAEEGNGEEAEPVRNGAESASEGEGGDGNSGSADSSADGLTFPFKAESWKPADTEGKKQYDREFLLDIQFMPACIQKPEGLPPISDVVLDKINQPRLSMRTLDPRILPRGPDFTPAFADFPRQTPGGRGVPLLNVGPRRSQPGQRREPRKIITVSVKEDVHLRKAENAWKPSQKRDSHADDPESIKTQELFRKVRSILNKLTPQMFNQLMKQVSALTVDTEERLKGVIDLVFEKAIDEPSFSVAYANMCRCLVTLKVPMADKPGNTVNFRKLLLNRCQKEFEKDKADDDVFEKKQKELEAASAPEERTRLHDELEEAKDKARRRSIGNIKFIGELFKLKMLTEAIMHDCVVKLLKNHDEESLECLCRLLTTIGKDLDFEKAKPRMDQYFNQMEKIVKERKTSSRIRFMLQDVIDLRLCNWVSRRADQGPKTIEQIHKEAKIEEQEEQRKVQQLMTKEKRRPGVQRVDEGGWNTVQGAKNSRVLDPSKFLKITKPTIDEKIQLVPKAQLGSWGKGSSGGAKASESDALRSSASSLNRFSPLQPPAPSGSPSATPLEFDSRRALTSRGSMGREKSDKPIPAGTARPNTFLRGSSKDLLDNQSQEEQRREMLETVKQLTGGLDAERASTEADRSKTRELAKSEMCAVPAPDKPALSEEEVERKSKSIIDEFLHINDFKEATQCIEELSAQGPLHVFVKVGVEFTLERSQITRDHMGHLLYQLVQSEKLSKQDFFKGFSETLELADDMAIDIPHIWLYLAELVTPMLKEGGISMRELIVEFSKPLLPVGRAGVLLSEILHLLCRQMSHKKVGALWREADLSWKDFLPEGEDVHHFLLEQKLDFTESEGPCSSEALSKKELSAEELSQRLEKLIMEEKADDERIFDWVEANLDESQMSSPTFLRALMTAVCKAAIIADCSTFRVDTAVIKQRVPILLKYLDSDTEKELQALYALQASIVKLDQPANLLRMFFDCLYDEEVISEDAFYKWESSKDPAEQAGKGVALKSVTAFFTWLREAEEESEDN
UniProt Q7TSC1: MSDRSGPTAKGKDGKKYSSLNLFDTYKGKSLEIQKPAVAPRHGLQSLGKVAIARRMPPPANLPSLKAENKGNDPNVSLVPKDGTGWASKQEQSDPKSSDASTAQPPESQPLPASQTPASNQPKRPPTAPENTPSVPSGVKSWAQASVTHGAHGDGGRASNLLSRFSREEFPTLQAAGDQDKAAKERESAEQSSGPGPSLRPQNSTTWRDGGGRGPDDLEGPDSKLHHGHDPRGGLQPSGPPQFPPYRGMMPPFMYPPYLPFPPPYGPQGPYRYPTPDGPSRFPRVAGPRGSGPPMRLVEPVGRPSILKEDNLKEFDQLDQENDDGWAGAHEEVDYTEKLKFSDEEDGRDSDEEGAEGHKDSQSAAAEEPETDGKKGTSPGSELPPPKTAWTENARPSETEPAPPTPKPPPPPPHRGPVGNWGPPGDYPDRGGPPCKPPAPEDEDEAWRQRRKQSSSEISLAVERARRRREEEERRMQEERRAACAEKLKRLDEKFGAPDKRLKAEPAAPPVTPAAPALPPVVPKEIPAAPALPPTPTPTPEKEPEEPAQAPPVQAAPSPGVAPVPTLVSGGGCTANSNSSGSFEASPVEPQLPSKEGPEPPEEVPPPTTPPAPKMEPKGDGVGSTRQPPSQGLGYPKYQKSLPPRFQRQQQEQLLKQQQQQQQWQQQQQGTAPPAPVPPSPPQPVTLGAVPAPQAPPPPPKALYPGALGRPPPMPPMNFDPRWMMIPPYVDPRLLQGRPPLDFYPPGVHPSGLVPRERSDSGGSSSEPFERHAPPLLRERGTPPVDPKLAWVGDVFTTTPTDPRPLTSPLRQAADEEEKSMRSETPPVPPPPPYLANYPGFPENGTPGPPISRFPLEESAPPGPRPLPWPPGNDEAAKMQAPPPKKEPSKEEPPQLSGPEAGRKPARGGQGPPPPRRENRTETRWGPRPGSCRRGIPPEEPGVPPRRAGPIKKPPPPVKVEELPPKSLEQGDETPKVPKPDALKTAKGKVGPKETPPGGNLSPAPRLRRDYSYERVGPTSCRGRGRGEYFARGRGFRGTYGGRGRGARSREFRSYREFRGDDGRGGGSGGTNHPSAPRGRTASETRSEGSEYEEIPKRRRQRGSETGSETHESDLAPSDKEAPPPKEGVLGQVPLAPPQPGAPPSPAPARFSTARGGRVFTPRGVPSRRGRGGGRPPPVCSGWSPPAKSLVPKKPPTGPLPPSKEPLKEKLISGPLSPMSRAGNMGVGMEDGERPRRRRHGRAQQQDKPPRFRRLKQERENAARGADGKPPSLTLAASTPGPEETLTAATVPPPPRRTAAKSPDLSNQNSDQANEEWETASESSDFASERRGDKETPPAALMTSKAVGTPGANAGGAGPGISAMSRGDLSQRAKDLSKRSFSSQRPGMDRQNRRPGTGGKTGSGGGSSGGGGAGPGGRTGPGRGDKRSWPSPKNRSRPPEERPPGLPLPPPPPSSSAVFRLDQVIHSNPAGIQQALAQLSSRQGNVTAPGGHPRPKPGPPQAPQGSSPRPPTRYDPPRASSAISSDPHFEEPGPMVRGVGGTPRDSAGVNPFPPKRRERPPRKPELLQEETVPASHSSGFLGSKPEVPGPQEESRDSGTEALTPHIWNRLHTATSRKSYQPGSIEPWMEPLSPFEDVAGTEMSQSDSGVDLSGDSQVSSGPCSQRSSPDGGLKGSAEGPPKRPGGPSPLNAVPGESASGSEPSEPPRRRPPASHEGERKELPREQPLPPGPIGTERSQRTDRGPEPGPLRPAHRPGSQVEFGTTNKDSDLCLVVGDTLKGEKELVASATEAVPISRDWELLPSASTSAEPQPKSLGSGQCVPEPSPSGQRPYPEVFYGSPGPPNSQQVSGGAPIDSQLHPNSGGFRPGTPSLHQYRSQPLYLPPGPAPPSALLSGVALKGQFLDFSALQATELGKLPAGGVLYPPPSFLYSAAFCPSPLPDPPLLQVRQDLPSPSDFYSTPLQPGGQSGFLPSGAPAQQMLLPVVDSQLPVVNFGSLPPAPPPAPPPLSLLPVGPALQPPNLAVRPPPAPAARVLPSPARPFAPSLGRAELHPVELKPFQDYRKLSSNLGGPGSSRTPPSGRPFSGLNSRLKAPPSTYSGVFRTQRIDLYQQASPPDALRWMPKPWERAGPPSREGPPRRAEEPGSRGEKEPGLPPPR
UniProt Q99KP6: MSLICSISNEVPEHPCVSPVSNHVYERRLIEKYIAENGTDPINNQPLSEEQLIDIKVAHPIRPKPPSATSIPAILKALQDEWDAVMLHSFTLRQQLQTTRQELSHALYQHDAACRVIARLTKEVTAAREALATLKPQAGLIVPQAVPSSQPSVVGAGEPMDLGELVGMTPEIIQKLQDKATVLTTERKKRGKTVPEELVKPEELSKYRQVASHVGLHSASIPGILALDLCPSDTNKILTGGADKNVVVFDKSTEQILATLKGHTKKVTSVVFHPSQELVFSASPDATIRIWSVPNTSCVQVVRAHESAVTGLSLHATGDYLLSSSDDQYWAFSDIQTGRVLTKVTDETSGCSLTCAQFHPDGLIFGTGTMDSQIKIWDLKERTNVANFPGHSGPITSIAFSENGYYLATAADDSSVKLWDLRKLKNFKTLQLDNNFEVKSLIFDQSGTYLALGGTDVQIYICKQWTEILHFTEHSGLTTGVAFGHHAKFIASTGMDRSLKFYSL
UniProt P20060, residues 32-536: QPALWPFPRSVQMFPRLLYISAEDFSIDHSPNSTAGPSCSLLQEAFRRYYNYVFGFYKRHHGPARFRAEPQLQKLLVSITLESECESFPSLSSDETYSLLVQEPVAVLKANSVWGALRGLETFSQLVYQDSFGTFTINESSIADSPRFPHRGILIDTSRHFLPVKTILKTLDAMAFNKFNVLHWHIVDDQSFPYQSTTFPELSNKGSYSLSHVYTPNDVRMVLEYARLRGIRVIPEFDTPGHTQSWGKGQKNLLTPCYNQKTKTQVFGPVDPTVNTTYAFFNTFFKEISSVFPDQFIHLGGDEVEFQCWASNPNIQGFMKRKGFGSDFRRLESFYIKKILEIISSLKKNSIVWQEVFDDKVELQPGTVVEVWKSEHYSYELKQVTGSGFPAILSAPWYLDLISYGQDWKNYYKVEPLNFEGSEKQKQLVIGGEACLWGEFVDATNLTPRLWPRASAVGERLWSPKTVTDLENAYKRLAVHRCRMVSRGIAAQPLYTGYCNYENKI
UniProt Q8BG05: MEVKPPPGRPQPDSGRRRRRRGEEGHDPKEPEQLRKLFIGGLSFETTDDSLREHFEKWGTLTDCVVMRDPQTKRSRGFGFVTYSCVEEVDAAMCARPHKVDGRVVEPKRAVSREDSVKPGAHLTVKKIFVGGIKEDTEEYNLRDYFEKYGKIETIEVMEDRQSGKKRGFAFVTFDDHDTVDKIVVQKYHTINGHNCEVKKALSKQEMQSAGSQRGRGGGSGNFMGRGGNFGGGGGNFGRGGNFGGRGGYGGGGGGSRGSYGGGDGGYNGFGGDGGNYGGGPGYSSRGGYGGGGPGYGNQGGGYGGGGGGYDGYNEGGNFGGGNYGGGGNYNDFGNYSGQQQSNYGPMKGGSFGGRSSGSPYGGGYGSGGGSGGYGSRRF
UniProt Q8VEK3: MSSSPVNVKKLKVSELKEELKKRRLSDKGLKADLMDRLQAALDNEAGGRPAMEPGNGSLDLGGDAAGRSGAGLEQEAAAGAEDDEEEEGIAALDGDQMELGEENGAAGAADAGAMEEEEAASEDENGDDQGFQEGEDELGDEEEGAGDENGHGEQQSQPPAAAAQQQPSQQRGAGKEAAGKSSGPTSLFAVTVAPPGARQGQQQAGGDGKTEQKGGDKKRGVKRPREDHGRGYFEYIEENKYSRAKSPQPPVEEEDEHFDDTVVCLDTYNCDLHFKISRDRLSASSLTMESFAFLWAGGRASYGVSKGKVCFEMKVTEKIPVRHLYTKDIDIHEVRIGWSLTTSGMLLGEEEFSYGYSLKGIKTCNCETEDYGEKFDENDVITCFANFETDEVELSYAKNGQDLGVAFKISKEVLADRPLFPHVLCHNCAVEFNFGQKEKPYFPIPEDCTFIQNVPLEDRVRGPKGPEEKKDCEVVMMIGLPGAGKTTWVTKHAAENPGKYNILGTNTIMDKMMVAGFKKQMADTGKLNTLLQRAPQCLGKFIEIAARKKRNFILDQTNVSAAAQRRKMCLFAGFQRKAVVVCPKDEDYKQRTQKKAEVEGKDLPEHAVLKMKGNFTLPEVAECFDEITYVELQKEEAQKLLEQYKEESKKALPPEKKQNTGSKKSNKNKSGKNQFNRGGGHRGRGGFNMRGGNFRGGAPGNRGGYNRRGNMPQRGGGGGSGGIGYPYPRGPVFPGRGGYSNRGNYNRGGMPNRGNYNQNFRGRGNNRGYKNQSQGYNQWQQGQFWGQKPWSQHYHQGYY
UniProt Q9CQJ4: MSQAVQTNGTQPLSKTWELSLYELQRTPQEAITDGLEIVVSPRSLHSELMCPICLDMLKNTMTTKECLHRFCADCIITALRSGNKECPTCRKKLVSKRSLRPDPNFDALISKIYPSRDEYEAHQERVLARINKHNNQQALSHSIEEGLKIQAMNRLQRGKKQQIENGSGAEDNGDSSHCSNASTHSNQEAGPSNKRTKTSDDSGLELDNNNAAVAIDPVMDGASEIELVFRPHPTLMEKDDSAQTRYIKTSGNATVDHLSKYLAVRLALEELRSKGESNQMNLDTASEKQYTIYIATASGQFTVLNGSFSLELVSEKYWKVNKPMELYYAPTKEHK
UniProt Q9CXZ1, residues 43-175: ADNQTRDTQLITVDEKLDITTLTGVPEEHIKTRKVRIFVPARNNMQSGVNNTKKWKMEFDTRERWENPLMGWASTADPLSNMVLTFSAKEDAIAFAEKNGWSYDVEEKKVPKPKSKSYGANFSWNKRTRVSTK

Target: human mtSOD1-L126delTT with a FLAG sequence at the C terminus (human) (UniProt P00441)
Assay: affinity purification with mass spectrometry; anti-FLAG M2 IP (5 ug antibody, protein A/G magnetic beads) from the nuclear fraction of DF7 cells (500 ug total protein); control IP with monoclonal mouse IgG (MOPC 21); DIA proteomics; hits: log2 FC >= 2 over control or missing in the control IP

Molecule | binding
Serine/threonine-protein kinase MARK2 (from UniProt Q05512 1-776) | binds
DnaJ homolog subfamily A member 1 (from UniProt P63037 1-397) | binds
Eif4g3 (from UniProt Q80XI3 1-1579) | binds
Rrbp1 (from UniProt Q99PL5 1-1605) | binds
Death-inducer obliterator 1 (from UniProt Q8C9B9 1-2256) | binds
Protein PRRC2A (from UniProt Q7TSC1 1-2158) | binds
Protein PRRC2C (from UniProt Q3TLH4 1-2846) | binds
Map4 (from UniProt P27546 1-1125) | binds
Prpf19 (from UniProt Q99KP6 1-504) | binds
Beta-hexosaminidase subunit beta (from UniProt P20060 32-536) | binds
Serine/threonine-protein kinase WNK1 (from UniProt P83741 1-2377) | binds
Xrn1 (from UniProt P97789 1-1719) | binds
Structural maintenance of chromosomes protein 4 (from UniProt Q8CG47 1-1286) | binds
Map1b (from UniProt P14873 1-2464) | binds
Hnrnpa3 (from UniProt Q8BG05 1-379) | binds
Zinc finger RNA-binding protein (from UniProt O88532 1-1074) | binds
Eif3a (from UniProt P23116 1-1344) | binds

Molecule | binding
Centrosomal protein of 170 kDa protein B (from UniProt Q80U49 1-1574) | binds
Ago2 (from UniProt Q8CJG0 1-860) | binds
Tripeptidyl-peptidase 2 (from UniProt Q64514 1-1262) | binds
DNA topoisomerase 2-beta (from UniProt Q64511 1-1612) | binds
Hnrnpu (from UniProt Q8VEK3 1-800) | binds
E3 ubiquitin-protein ligase RING2 (from UniProt Q9CQJ4 1-336) | binds
DNA topoisomerase 2-alpha (from UniProt Q01320 1-1528) | binds
Dynactin subunit 2 (from UniProt Q99KJ8 1-402) | binds
NADH dehydrogenase [ubiquinone] iron-sulfur protein 4, mitochondrial (from UniProt Q9CXZ1 43-175) | binds
Zc3h11a (from UniProt Q6NZF1 1-792) | binds
Vesicle-associated membrane protein-associated protein B (from UniProt Q9QY76 1-243) | binds
B1 | binds
B2 | binds
B3 | binds
B4 | binds
B5 | binds
